Values of other authors, collected in patent US20150246117A1, “TREATMENT OF TYPE 2 DIABETES AND RELATED CONDITIONS” (priority 2012, published 2015).
For at least one compound, name, drawing or mass did not settle the structure.

Conditions: in vivo

## CCCCCCCCCCCCCCCC(=O)N[C@@H](CCC(=O)NCCCC[C@H](NC(=O)[C@H](C)NC(=O)[C@H](C)NC(=O)[C@H](CCC(N)=O)NC(=O)CNC(=O)[C@H](CCC(=O)O)NC(=O)[C@H](CC(C)C)NC(=O)[C@H](Cc1ccc(O)cc1)NC(=O)[C@H](CO)NC(=O)[C@H](CO)NC(=O)[C@@H](NC(=O)[C@H](CC(=O)O)NC(=O)[C@H](CO)NC(=O)[C@@H](NC(=O)[C@H](Cc1ccccc1)NC(=O)[C@@H](NC(=O)CNC(=O)[C@H](CCC(=O)O)NC(=O)[C@H](C)NC(=O)[C@@H](N)Cc1cnc[nH]1)[C@@H](C)O)[C@@H](C)O)C(C)C)C(=O)N[C@@H](CCC(=O)O)C(=O)N[C@@H](Cc1ccccc1)C(=O)N[C@H](C(=O)N[C@@H](C)C(=O)N[C@@H](Cc1c[nH]c2ccccc12)C(=O)N[C@@H](CC(C)C)C(=O)N[C@H](C(=O)N[C@@H](CCCNC(=N)N)C(=O)NCC(=O)N[C@@H](CCCNC(=N)N)C(=O)NCC(=O)O)C(C)C)[C@@H](C)CC)C(=O)O [liraglutide]
  gastric emptying: Victoza delays gastric
